PubChem BioAssay AID602196, INSERM, 2012

Screen: 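Modifiers of cisplatin sensitivity in A549 cells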
Cell system: human A549 lung cancer cells
Knock-down reagent: siRNA pair against human genes
Time to read-out: 48 h transfection before cisplatin; time from cisplatin to read-out not stated
Treatment: cisplatin at a dose killing half of control-siRNA cells; exact dose and duration not given
Measurement: 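Cisplatin cell death as a shift from the 50% death seen with control siRNA; siRNAs toxic or growth-blocking alone scored 0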
Reading the numbers: two-siRNA summed score (-2 to +2): higher = both siRNAs protect from cisplatin killing; -2 means both sensitise
Call rule: 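siRNAs harmful alone (LDH or WST-1) get 0; others get +1 for less and -1 for more cisplatin killing; genes are active when the two siRNAs give the same sign, summing to ±2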
Calls: active = both siRNAs shift cisplatin killing the same way; inactive = no consistent shift, or siRNA harmful alone
The whole screen tested about 23,000 reagents; shown is an unselected part. 455 of them (2%) count as active. 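Active includes both protection and sensitisation; some change values fall well beyond the stated -50 to +50 range.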 A number with no mark means an inactive call. Not all columns of the deposit are shown. No sequences are given here. Not stated in the record: the amount of reagent.

Silencing of LOC388716 gave: two-siRNA summed score (-2 to +2) = 0. ALOX12B showed two-siRNA summed score (-2 to +2) = 0. With knock-down of OR4C45, the screen gave two-siRNA summed score (-2 to +2) = 0. NGB gave two-siRNA summed score (-2 to +2) = 0. With knock-down of TMEM258 the results were two-siRNA summed score (-2 to +2) = -1. GFPT1 showed two-siRNA summed score (-2 to +2) = 0.

LYPLA2P2 showed two-siRNA summed score (-2 to +2) = 0. Knock-down of PXN resulted in: two-siRNA summed score (-2 to +2) = 0. SNHG17 showed two-siRNA summed score (-2 to +2) = 0. After knock-down of CCL3L1, the screen gave two-siRNA summed score (-2 to +2) = 1. CSRNP3 showed two-siRNA summed score (-2 to +2) = 0. LOC391844 scored two-siRNA summed score (-2 to +2) = 0.

Depletion of LOC347265 gave: two-siRNA summed score (-2 to +2) = 0. FGF21 scored two-siRNA summed score (-2 to +2) = 0. After knock-down of MFGE8 the results were two-siRNA summed score (-2 to +2) = 0. Against HMGCS2 the deposit lists two-siRNA summed score (-2 to +2) = 0. For IDI2, the values are two-siRNA summed score (-2 to +2) = 1. With knock-down of NCOA6, the screen gave two-siRNA summed score (-2 to +2) = 0.

LOC401605 showed two-siRNA summed score (-2 to +2) = 0. MMP19 scored two-siRNA summed score (-2 to +2) = 0. Silencing of AQP5 came out at: two-siRNA summed score (-2 to +2) = -1. For SERPINB9P1, the entry reads two-siRNA summed score (-2 to +2) = 1. Silencing of LOC441480 resulted in: two-siRNA summed score (-2 to +2) = 0. With knock-down of APOBEC3H, the record shows two-siRNA summed score (-2 to +2) = 0.

After knock-down of LOC440109, the record shows two-siRNA summed score (-2 to +2) = 1. For ZNF623 the deposit lists two-siRNA summed score (-2 to +2) = 1. Silencing of TBC1D22A came out at: two-siRNA summed score (-2 to +2) = 0. Against OR1Q1, the entry reads two-siRNA summed score (-2 to +2) = 0. LOC441859 scored two-siRNA summed score (-2 to +2) = 0. Silencing of SNCA resulted in: two-siRNA summed score (-2 to +2) = 0.

AHDC1 scored two-siRNA summed score (-2 to +2) = 0. Knock-down of BCL2L2 gave: two-siRNA summed score (-2 to +2) = 1. With knock-down of ABI3BP, the screen gave two-siRNA summed score (-2 to +2) = -1. Silencing of LOC442643 gave: two-siRNA summed score (-2 to +2) = 0. Depletion of TM4SF20 came out at: two-siRNA summed score (-2 to +2) = 0. With knock-down of LOC400612, the screen gave two-siRNA summed score (-2 to +2) = 0.

For HS3ST3B1, the entry reads two-siRNA summed score (-2 to +2) = 0. Silencing of FLNB came out at: two-siRNA summed score (-2 to +2) = -1. TRIM42 scored two-siRNA summed score (-2 to +2) = 2 (active). Depletion of KLHDC7B came out at: two-siRNA summed score (-2 to +2) = -1.

An excerpt from the list above, as a working copy:
IDI2: two-siRNA summed score (-2 to +2) = 1
NCOA6: two-siRNA summed score (-2 to +2) = 0
LOC401605: two-siRNA summed score (-2 to +2) = 0
MMP19: two-siRNA summed score (-2 to +2) = 0
AQP5: two-siRNA summed score (-2 to +2) = -1
SERPINB9P1: two-siRNA summed score (-2 to +2) = 1
LOC441480: two-siRNA summed score (-2 to +2) = 0
